Patent EP4748864A1, “POLYMERIZATION INITIATOR OR PHOTOSENSITIZER, POLYMERIZATION INITIATION COMPOSITION, AND METHOD FOR PRODUCING RESIN” (Miyoshi Oil & Fat Co., Ltd., priority 2023, dated 2025)
Some entries share one result that the patent states for a list of compounds.

Experiment: Solubility of component (A) in monomers and solvents, visual observation
Type: physicochemical
Details: for solubility in toluene, result in words: 0.1 g in toluene (1.0 g); for solubility in butyl acrylate and toluene, result in words: 0.1 g in butyl acrylate (1.0 g) or toluene (1.0 g)
Method: The components (A), A-1 to A-4 and A-9 to A-12, (0.1 g) was added to butyl acrylate (1.0 g) or toluene (1.0 g), and the resulting mixture was stirred. The appearance of the mixture was visually observed, and the solubility was evaluated as follows (Table 5).
• ⊚: dissolved transparently • ∘: dissolved almost transparently, but turbidity was observed • △: not dissolved

Row | solubility in toluene, result in words | solubility in butyl acrylate and toluene, result in words | Compound
1 | good solubility | – | 4,4'-Ditolylthiobenzophenone [A-2]
2 | good solubility | – | CC(C)c1ccc(Sc2ccc(C(=O)c3ccc(Sc4ccc(C(C)C)cc4)cc3)cc2)cc1 [A-3, 4,4'-Bis(p-isopropylphenylthio)benzophenone]
3 | good solubility | – | CC(C)(C)c1ccc(Sc2ccc(C(=O)c3ccc(Sc4ccc(C(C)(C)C)cc4)cc3)cc2)cc1 [A-4, 4,4'-Bis(p-tert-butylphenylthio)benzophenone]
4 | good solubility | good solubility | Cc1cccc(Sc2ccc(C(=O)c3ccc(Sc4cccc(C)c4)cc3)cc2)c1 [A-10, 4,4'-Dithio(3-methylphenyl)benzophenone]
5 | good solubility | good solubility | Cc1ccc(Sc2ccc(C(=O)c3ccc(Sc4ccc(C)cc4C)cc3)cc2)c(C)c1 [A-11, 4,4'-Dithio(2,4-dimethylphenyl)benzophenone]
6 | good solubility | good solubility | Cc1ccc(C)c(Sc2ccc(C(=O)c3ccc(Sc4cc(C)ccc4C)cc3)cc2)c1 [A-12, 4,4'-Dithio(2,5-dimethylphenyl)benzophenone]
